Measurements reported in patent US12209086B2, “FGFR3 inhibitor compounds” (ELI LILLY AND COMPANY, priority 2021, dated 2025).
Some entries share one result that the patent states for a list of compounds.

Protein sequences, listed by entry. Tags and fused reporters are not part of them. Residues count along the entry.
UniProt P22607, 23-806: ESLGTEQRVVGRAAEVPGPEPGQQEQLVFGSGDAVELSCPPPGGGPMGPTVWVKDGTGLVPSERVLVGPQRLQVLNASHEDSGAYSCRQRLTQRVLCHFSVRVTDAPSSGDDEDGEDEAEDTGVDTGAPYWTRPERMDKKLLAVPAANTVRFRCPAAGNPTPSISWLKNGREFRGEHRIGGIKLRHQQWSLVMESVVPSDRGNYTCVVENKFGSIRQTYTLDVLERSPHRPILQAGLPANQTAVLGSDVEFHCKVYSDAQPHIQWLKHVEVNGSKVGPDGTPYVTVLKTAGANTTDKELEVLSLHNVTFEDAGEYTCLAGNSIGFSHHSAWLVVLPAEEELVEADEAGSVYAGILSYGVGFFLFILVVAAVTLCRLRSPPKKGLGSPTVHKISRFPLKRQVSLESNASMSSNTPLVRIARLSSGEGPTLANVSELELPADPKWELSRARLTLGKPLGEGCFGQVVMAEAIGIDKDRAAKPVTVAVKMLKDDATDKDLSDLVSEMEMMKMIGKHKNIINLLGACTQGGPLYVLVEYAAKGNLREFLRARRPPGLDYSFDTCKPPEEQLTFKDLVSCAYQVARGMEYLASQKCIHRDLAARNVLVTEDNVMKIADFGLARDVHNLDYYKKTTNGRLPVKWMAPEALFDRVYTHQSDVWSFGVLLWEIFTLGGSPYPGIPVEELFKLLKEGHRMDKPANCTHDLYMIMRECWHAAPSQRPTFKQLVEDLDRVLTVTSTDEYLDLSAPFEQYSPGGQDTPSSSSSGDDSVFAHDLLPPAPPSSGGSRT

target: T1, FGFR3 protein (Homo sapiens, UniProt P22607); assay: FGFR3 enzyme assay (KinEASE-TK HTRF kinase assay); assay type: biochemical; conditions: 0.25 nM enzyme, ATP at Km, 15 min pre-incubation on ice, 30 min at 30° C.
T1 construct: purchased Reaction Biology 1068

IC50, < 350 nM:
Cc1c(-c2cc(OC(CO)c3ccc(F)cn3)n3c(C#N)cnc3c2)nnn1C1CCN(C#N)CC1 (single isomer, unassigned; isomer 1) [Example 63, 7-[1-(1-Cyano-4-piperidyl)-5-methyl-triazol-4-yl]-5-[1-(5-fluoro-2-pyridyl)-2-hydroxy-ethoxy]imidazo[1,2-a]pyridine-3-carbonitrile, Isomer 1]
Cc1c(-c2cc(OC(C)c3ccccc3C(N)=O)c3c(C#N)cnn3c2)nnn1C1CCN(C#N)CC1 (single isomer, unassigned; isomer 1) [Example 65, 2-[1-[3-Cyano-6-[1-(1-cyano-4-piperidyl)-5-methyl-triazol-4-yl]pyrazolo[1,5-a]pyridin-4-yl]oxyethyl]benzamide, Isomer 1]
Cc1cnnc(C(C)Oc2cc(-c3nnn(C4CCN(C#N)CC4)c3C)cn3ncc(C#N)c23)c1 (single isomer, unassigned; isomer 1) [Example 66, 6-[1-(1-Cyano-4-piperidyl)-5-methyl-triazol-4-yl]-4-[1-(5-methylpyridazin-3-yl)ethoxy]pyrazolo[1,5-a]pyridine-3-carbonitrile, Isomer 1]
Cc1c(-c2cc(OC(C)c3cc(Cl)cnn3)c3c(C#N)cnn3c2)nnn1C1CCN(C#N)CC1 (single isomer, unassigned; isomer 1) [Example 68, 4-[1-(5-Chloropyridazin-3-yl)ethoxy]-6-[1-(1-cyano-4-piperidyl)-5-methyl-triazol-4-yl]pyrazolo[1,5-a]pyridine-3-carbonitrile, Isomer 1]
Cc1cnnc(C(C)Oc2cc(-c3nnn(C4CCN(C#N)CC4)c3C)cc3ncc(C#N)n23)c1 (single isomer, unassigned; isomer 1) [Example 69, 7-[1-(1-Cyano-4-piperidyl)-5-methyl-triazol-4-yl]-5-[1-(5-methylpyridazin-3-yl)ethoxy]imidazo[1,2-a]pyridine-3-carbonitrile, Isomer 1]
Cc1cncc(C(C)Oc2cc(-c3nnn(C4CCN(C#N)CC4)c3C)cc3ncc(C#N)n23)c1 (single isomer, unassigned; isomer 1) [Example 70, 7-[1-(1-Cyano-4-piperidyl)-5-methyl-triazol-4-yl]-5-[1-(5-methyl-3-pyridyl)ethoxy]imidazo [1,2-a]pyridine-3-carbonitrile, Isomer 1]
Cc1c(-c2cc(OC(C)c3cncc(C(F)F)c3)n3c(C#N)cnc3c2)nnn1C1CCN(C#N)CC1 (single isomer, unassigned; isomer 1) [Example 72, 7-[1-(1-Cyano-4-piperidyl)-5-methyl-triazol-4-yl]-5-[1-[5-(difluoromethyl)-3-pyridyl]ethoxy]imidazo [1,2-a]pyridine-3-carbonitrile, Isomer 1]
Cc1c(-c2cc(OC(C)c3cncc4c3ccn4C)c3c(C#N)cnn3c2)nnn1C1CCN(C#N)CC1 (single isomer, unassigned; isomer 1) [Example 74, 6-[1-(1-Cyano-4-piperidyl)-5-methyl-triazol-4-yl]-4-[1-(1-methylpyrrolo[2,3-c]pyridin-4-yl)ethoxy]pyrazolo[1,5-a]pyridine-3-carbonitrile, Isomer 1]
Cc1c(-c2cc(OC(C)c3ccccc3S(C)(=O)=O)c3c(C#N)cnn3c2)cnn1C1CCN(C#N)CC1 (single isomer, unassigned; isomer 1) [Example 76, 6-[1-(1-Cyano-4-piperidyl)-5-methyl-pyrazol-4-yl]-4-[1-(2-methylsulfonylphenyl)ethoxy]pyrazolo[1,5-a]pyridine-3-carbonitrile, Isomer 1]
Cc1c(-c2cc(OC(C)c3cccc4ncsc34)n3c(C#N)cnc3c2)nnn1C1CCN(C#N)CC1 (single isomer, unassigned; isomer 1) [Example 78, 5-[1-(1,3-Benzothiazol-7-yl)ethoxy]-7-[1-(1-cyano-4-piperidyl)-5-methyl-triazol-4-yl]imidazo[1,2-a]pyridine-3-carbonitrile, Isomer 1]
